These results are taken from article PMC10997554.

By UniProt entry, the sequences of proteins in these tests, tags left out.
UniProt P51608: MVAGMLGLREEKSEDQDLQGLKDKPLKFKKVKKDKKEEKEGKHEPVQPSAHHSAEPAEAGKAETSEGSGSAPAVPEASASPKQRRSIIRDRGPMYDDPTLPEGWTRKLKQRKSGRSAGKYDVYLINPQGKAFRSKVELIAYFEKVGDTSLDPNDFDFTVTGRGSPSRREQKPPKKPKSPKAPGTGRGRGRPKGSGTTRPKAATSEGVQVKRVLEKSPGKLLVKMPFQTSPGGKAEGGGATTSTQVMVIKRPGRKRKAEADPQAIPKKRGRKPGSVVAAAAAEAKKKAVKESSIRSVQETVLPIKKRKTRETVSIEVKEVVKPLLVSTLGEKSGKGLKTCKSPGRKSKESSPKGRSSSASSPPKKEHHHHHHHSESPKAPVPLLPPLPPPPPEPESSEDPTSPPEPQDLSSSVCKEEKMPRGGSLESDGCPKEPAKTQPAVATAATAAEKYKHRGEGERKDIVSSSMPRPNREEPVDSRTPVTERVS
UniProt Q16531: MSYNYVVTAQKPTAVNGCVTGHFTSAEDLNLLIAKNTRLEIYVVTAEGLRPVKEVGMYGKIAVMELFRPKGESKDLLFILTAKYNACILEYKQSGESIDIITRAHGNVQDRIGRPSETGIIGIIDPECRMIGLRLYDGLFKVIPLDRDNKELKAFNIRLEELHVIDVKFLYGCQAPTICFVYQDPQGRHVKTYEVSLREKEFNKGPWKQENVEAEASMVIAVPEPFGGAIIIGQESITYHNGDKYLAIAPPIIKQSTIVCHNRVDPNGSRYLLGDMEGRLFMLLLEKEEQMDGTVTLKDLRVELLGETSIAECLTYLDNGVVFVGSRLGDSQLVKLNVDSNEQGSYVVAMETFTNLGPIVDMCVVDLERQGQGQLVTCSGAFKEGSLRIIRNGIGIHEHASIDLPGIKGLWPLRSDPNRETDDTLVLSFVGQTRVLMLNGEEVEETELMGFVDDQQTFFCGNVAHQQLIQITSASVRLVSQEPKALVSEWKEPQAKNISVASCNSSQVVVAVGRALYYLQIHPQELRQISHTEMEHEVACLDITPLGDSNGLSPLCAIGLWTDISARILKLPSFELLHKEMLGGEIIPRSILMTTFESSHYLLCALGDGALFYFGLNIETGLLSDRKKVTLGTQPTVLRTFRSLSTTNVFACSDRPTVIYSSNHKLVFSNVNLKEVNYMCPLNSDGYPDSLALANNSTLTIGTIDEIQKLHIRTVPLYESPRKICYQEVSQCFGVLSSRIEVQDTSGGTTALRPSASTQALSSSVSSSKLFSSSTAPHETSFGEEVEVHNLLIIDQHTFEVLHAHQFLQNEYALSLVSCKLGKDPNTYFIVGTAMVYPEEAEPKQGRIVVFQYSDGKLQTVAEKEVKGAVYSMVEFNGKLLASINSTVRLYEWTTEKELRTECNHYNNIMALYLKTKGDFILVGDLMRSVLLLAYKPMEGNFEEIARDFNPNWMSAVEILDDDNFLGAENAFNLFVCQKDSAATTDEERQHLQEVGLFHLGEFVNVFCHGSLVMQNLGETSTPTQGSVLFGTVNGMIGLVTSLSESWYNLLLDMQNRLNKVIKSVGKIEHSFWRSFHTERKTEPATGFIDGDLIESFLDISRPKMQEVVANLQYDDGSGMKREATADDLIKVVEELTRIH
UniProt Q13619: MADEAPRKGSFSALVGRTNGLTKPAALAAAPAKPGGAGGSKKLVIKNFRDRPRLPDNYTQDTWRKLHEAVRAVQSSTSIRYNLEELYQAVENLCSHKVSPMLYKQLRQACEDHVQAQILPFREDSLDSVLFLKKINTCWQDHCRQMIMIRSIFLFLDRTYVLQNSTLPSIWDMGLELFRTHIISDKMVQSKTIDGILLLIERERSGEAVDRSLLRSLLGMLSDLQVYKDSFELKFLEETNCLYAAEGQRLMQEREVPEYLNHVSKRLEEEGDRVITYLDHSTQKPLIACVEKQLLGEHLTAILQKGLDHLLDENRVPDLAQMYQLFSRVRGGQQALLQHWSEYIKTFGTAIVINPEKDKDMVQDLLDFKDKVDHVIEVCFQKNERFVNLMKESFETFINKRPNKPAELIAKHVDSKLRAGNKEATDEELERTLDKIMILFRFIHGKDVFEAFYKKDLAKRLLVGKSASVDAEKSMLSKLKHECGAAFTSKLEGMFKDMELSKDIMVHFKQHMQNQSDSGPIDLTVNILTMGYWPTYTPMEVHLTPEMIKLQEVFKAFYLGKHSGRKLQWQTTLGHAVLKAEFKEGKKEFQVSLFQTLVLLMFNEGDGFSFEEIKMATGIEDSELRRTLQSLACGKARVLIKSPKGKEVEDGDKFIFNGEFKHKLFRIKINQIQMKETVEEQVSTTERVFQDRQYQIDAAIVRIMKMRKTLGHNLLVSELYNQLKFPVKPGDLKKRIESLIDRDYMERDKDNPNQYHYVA

Results are given in words; binding and its absence hold for the method and conditions named. In cells and extracts the contact can be indirect. Some binding calls cover weakened binding; strength is not graded here.

For this assay, the target named is methyl-CpG-binding protein 2 (MeCP2) (human) (UniProt P51608). The assay can be described thus: co-IP; HeLa cells, 48 h after transfection; lysis buffer 50 mM Tris-HCl pH 7.5, 150 mM NaCl, 10% glycerol, 0.5% NP-40; anti-FLAG M2 magnetic beads or anti-c-Myc affinity agarose, 4 °C, 4 h; western blot. In general terms: Immunoblotting shows a protein as a band on a membrane.

As for “DNA damage-binding protein-1 (DDB1) (from UniProt Q16531 1-1140)”, the binding entry is “binds”.
With “Cullin4A (CUL4A) (from UniProt Q13619 1-759)” the entry was “binds”.
